## Results of single-concentration screens

Source: ChEMBL document CHEMBL3988442, “University of Dundee, Small-Polar-MMV Screening Library” (2021).

T. brucei: 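Whole-parasite assay of Trypanosoma brucei over 72 hours; the read-out is not stated. Concentration: 30 µM. Direction is inferred from retests: higher values go with stronger inhibition. Values scatter widely below zero; nearly all retest evidence comes from the higher of the two concentrations used. Of about 64,000 compounds tested this way, about 940 (1.5%) reached 50% or more in at least one test.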
Leishmania in macrophages: 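Cell assay of Leishmania donovani living inside macrophages; the read-out is not stated. Tested at 30 µM. Higher reads as stronger inhibition (inferred: compounds with an IC50 in retests scored well above the rest). Size under these conditions: about 69,000 compounds, about 1,000 of them at 50% or above in at least one test.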
Toxoplasma: 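Assay of Toxoplasma gondii numbers, read through their beta-galactosidase reporter with a colour substrate. Tested at 10 µM. Higher reads as fewer parasites (inferred from which compounds were picked for retests). About 67,000 compounds were tested under these conditions; 0.38% (about 260) showed 50% or more at least once.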

Each number is a percent effect as filed. How 0% and 100% were set is not recorded. Most values in the screen are low, and negative values occur. Compounds were drawn at random from those tested, without regard to their results. A dash means the value is not listed here; it may have been measured.

| SMILES | T. brucei | Leishmania in macrophages | Toxoplasma |
|---|---|---|---|
| `O=C(NC1CCN(Cn2nc(-c3ccccc3)oc2=O)CC1)C1CC1` | -8.396 | 4.349 | -4.478 |
| `CC(C)N1CCCC(C(=O)NCc2noc(Cc3ccccc3)n2)C1` (stereo not drawn) | -51.79 | 5.507 | -18.27 |
| `CCSc1ccc(C(C)NC(=O)CNS(C)(=O)=O)cc1` (stereo not drawn) | -14.68 | -1.955 | -7.563 |
| `O=C(C1CC1)N1CCC2(COCc3cnc(NCc4ccco4)nc32)C1` (stereo not drawn) | -31.08 | 7.129 | -10.4 |
| `[H][C@]12CCC[C@@]1(CO)CN(C(=O)c1cc(CCC)n[nH]1)C2` | -20.85 | 8.19 | -0.5325 |
| `Cc1ccc(Oc2ncccc2CNC(=O)NC2CCCCC2)cn1` | 3.774 | -1.03 | -8.986 |
| `NC(=O)N1CCC(C(=O)NCc2nncn2-c2ccccc2)CC1` | -20.1 | 19.38 | 19.35 |
| `Cc1cc(CSCc2ccccn2)on1` | -5.952 | 3.6 | -2.781 |
| `CC(=O)N1CCN(C(C)C)CC(COc2ccccc2)C1` (stereo not drawn) | 6.519 | 10.91 | -7.005 |
| `CC(=O)c1ccc(CN2CC(Oc3ccccc3C)C2)cc1` | -37.12 | 2.212 | 7.369 |
| `O=C(c1cnccn1)N1CCCC(Cn2cc(C3CCCC3)nn2)C1` (stereo not drawn) | -60.35 | -9.346 | 4.218 |
| `CCn1nnnc1-c1cccc(NC(=O)CCc2cnn(C)c2)c1` | -23.61 | 9.918 | -11.28 |
| `Cc1cccc(N2CCC3(CCCN3Cc3c(C)nn(C)c3C)CC2)n1` | -2.311 | 20.24 | 14.9 |
| `O=C(CCc1ccco1)N1CCC(Nc2cccnn2)CC1` | -1.206 | 8.583 | -40.39 |
| `COc1cccc(C2SCC(=O)Nc3n[nH]cc32)c1OC(C)C` (stereo not drawn) | -32.26 | -28.27 | -21.41 |
| `OC1(CN2CCC(Oc3cccnc3)CC2)CNCCOC1` (stereo not drawn) | -21.49 | -1.613 | -7.038 |
| `Cl.O=C(NCc1ccc(F)cc1)N1CCN(CC(O)C2CC2)CC1` (stereo not drawn) | 2.371 | 10.63 | -4.961 |
| `COc1cccc(NC(=O)Cn2c(=O)nc(N)c3cc(C)sc32)c1` | 9.155 | 12.79 | 4.582 |
| `CN(C)C(=O)CNC(=O)c1nc2c(s1)CCCN2Cc1ccccc1` | - | -12.76 | -17.23 |
| `COc1cccc(CNCCNS(=O)(=O)Cc2ccccc2)c1` | -7.168 | -2.546 | -27.6 |
| `Cc1ccc(NC(=O)Nc2cnc(N3CCN(C)CC3)nc2)cc1` | -0.2371 | -10.31 | 6.254 |
| `NC(=O)c1cccc(CN2CCOC(Cn3cccn3)C2)c1` (stereo not drawn) | -10.3 | 24.53 | 9.886 |
| `Cc1nc2c(c(NCc3ccccc3)n1)CCN(C(=O)NC(C)C)CC2` | -8.03 | -51.37 | 3.636 |
| `Cc1ccc([C@@H]2CN(C(=O)CCc3ccco3)C[C@H]2N(C)C)cc1` | -16.78 | -17.01 | -20.63 |
| `CCc1nc(NCCCn2cccn2)c2c(n1)c(C)nn2CC` | -16.86 | -48.93 | 14.75 |
| `CC(C)C(C)(CNC(=O)OC(C)(C)C)NC(=O)c1cnccn1` (stereo not drawn) | -0.3557 | 18.71 | -1.363 |
| `[H][C@@]12C[C@H](c3ccncn3)O[C@@]1([H])CCN(c1ccc(C)nn1)C2` | - | 12.48 | -4.904 |
| `O=C(c1ccncc1)N1CCC(c2nc(O)cc(-c3ccncc3)n2)C1` (stereo not drawn) | 17.24 | 7.336 | -3.161 |
| `[H][C@]12CC[C@]([H])(CN(Cc3cccnc3)C1)N(C(=O)CCn1cncn1)C2` | -9.575 | 3.03 | -3.072 |
| `CC(C)N1CCC(c2n[nH]cc2S(C)(=O)=O)CC1` | - | 17.62 | - |
| `COCC1CN(Cc2ccc(OC)cc2)S(=O)(=O)c2cnccc2O1` (stereo not drawn) | 1.66 | 0.6084 | -7.67 |
| `O=C(NCCN1CCCC1)c1nc2c(o1)CN(c1ncccn1)C2` | 18.66 | 0.09443 | -17.1 |
| `COCCN(Cc1cnn(C)c1)c1nc(C)nc2sccc12` | -179.1 | -0.7457 | -6.665 |
| `Cc1cccc(C)c1NC(=O)c1n[nH]c(-n2cnnc2)n1` | 12.88 | 13.52 | 4.536 |
| `CC(C)(C(=O)NCC1CCN(Cc2cccnc2)C1)c1ccccc1` (stereo not drawn) | -58.27 | 42.24 | 15.18 |
| `OC(CN1CCCCCCC1)c1ccc(F)cc1` (stereo not drawn) | 24.69 | 24.02 | -12.56 |
| `O=C(c1ccccn1)N1CCC(c2nc(O)cc(-c3ccncc3)n2)C1` (stereo not drawn) | -6.058 | 22.29 | -1.386 |

The first 2 entries again:

- O=C(NC1CCN(Cn2nc(-c3ccccc3)oc2=O)CC1)C1CC1 : T. brucei: -8.396%; Leishmania in macrophages: 4.349%; Toxoplasma: -4.478%
- CC(C)N1CCCC(C(=O)NCc2noc(Cc3ccccc3)n2)C1 (stereo not drawn) : T. brucei: -51.79%; Leishmania in macrophages: 5.507%; Toxoplasma: -18.27%